Numbering of substitutions follows the chain as printed. Numbers in names are those of the source. No constants are given. Whether binding was seen depends on the method and setting. Some results given as binding are weak or reduced against the parent protein; the word gives no strength. One block for each binder: values may come before it.
Tests used:
[1] = target: cynomolgus monkey soluble IL-6R (from cynomolgus monkey serum) (cynomolgus monkey); experiment: summary table, column 'Binds cyno monkey sIL-6R'
[2] = target: T1, recombinant soluble human IL-6R (human, UniProt P08887 20-365); experiment: gp130 ELISA (blocking): plate coated with human gp130; binder mixed with human IL-6 and human sIL-6R; bound IL-6R detected with biotinylated anti-IL-6R BAF227; blocked: binding of the IL-6/sIL-6R complex to gp130
T1 sequence: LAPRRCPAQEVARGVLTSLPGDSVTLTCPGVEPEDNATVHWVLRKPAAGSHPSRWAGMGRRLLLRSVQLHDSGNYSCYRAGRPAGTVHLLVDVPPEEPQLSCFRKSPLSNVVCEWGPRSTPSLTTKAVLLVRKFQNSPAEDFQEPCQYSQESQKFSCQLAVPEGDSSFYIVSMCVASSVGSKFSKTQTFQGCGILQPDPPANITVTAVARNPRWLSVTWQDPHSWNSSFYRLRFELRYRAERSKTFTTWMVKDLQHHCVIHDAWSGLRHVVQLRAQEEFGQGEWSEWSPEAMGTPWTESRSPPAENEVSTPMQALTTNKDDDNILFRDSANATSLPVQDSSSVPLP

[3] = target: T1, recombinant soluble human IL-6R; experiment: gp130 ELISA (blocking), human arm of the cynomolgus cross-reactivity assay: plate coated with human gp130; binder mixed with human IL-6 and recombinant human sIL-6R; bound IL-6R detected with BAF227; blocked: binding of the IL-6/sIL-6R complex to gp130
[4] = target: cynomolgus monkey soluble IL-6R (from cynomolgus monkey serum) (cynomolgus monkey); experiment: anti-cynomolgus monkey IL-6R gp130 ELISA (blocking): plate coated with human gp130; binder mixed with human IL-6 and diluted cynomolgus monkey serum as the source of sIL-6R; bound IL-6R detected with BAF227; blocked: binding of the human IL-6/cyno sIL-6R complex to human gp130
[5] = target: cynomolgus monkey soluble IL-6R (from cynomolgus monkey serum) (cynomolgus monkey); experiment: anti-cynomolgus IL-6R gp130 ELISA
[6] = target: cynomolgus monkey soluble IL-6R (from cynomolgus monkey serum) (cynomolgus monkey); experiment: cynomolgus monkey IL-6R competition assay

binding [1]: binds
binding [2]: binds
binding [3]: binds
binding [4]: binds
B1: 3C12 (VHH)
VHH: EVQLVESGGGLAQLGGSLRLSCVASGNIFSSNTAGWFRQAPGKQREWVAGISIGGMPAYADSVKGRFTISRDNAKNTVYLQMNSLKPEDTAVYYCATGGTEYDYWGQGTQVTVSS
notes: Llama ICVD from library 37-3, produced in E. coli; also called VIL-3C12; not shown: C-terminal Flag and 6xHis tags from vector pMEK222

binding [1]: binds
binding [2]: binds
binding [3]: binds
binding [4]: binds
B2: 4D3 (VHH)
VHH: EVQLVESGGGSVQAGESLTLSCVASISTFSQNAMGWFRQAAGKRRESVARISSSGNVGYTDAVKGRFTMSRDNAKKTVYLQMNSLKPEDTAVYYCNAYSMSGELAAPWGQGTQVTVSS
notes: Llama ICVD from library 46-3, produced in E. coli; also called VIL-4D3; not shown: C-terminal Flag and 6xHis tags from vector pMEK222

B3: 7F6 (VHH)
VHH: EVQLVESGGGLVQAGGSTRLTCLASGSISSINVIGWYRQAPGKQRELVAMIGRGEGANYGDFAKGRFTISRDNSKNTVYLQMNSLKPEDTAVYYCYADYEDRDSPFNGSWGQGTQVTVSS
notes: also called VIL-7F6; 'Wild type' 7F6; not shown: C-terminal Flag and 6xHis tags from vector pMEK222
binding [5]: binds
binding [1]: binds
binding [4]: binds

B4: 5G9 (VHH)
VHH: EVQLVESGGGLVQAGGSTRLTCKASGSIFNINSINVMAWYRQAPGKQRELVAIIGKGGGTNYADFVKGRFTISRDAAKNTVNLQMNSLKPEDTAVYYCYADYEDRDSPFNASWGQGTQVTVSS
notes: also called VIL-5G9; 'Wild type' 5G9; not shown: C-terminal Flag and 6xHis tags from vector pMEK222
binding [5]: binds
binding [1]: binds
binding [4]: binds

binding [6]: binds
B5: ID-123V (VHH)
VHH: B4 VHH with F29S, Q47G, N82Y, K89R, R105H, F109H
notes: E. coli-produced trans-selective 5G9 derivative; E. coli version of ID-142V (lacks E1D); also called 5G9 + F29S, Q47G, N82Y, K89R, R105H, F109H; not shown: C-terminal FLAG-6xHis
